Test results taken from publication PMC3897670.
Results are given in words; binding and its absence hold for the method and conditions named. Binding seen in cells or lysates may run through a third protein. Some results given as binding are weak or reduced against the parent protein; the word gives no strength.

Amino acid sequences for entries named in this document (tags omitted).
UniProt P29351: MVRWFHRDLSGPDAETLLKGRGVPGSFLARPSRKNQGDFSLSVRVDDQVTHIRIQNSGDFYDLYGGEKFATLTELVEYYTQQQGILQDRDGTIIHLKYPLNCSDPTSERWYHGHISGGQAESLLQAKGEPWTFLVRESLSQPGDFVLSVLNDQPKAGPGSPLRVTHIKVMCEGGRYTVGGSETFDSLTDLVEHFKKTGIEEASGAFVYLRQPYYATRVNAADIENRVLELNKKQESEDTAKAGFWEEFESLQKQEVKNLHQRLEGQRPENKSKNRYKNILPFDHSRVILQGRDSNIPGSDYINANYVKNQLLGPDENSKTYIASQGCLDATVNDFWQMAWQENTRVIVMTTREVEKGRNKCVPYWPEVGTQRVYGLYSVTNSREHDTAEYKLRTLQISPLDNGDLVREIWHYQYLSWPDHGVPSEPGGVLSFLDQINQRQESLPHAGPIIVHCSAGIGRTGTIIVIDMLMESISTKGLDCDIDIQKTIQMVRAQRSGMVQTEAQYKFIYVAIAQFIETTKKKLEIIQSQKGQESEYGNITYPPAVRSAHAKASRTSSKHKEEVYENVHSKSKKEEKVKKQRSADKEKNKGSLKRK
UniProt P42227: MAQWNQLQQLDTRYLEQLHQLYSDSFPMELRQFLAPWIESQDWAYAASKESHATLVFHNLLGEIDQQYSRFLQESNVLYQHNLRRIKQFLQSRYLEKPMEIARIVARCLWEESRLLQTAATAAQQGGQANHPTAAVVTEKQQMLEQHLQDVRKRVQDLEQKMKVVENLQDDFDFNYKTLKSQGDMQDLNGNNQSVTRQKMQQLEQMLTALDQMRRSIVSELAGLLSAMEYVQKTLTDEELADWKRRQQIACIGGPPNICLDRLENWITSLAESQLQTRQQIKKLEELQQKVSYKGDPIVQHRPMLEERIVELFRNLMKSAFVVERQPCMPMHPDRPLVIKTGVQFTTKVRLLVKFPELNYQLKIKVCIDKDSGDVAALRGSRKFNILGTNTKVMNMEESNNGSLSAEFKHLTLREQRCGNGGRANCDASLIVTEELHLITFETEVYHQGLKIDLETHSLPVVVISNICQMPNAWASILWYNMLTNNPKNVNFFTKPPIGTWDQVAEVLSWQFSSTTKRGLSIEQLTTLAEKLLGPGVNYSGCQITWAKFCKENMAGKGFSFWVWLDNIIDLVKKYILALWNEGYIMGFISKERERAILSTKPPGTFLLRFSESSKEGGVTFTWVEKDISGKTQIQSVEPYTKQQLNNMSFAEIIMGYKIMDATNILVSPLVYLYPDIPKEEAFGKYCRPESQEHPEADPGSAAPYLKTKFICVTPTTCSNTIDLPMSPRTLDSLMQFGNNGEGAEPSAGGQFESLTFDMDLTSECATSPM

Molecular target: Src-homology protein tyrosine phosphatase-1 (SHP-1) (mouse (endogenous in F9)) (UniProt P29351)
Assay: co-IP; F9 cell lysates in non-denaturing lysis buffer incubated overnight with rabbit anti-SHP-1 or rabbit anti-STAT3, protein A/G beads 3 h at 4°C, western blot; rabbit IgG as negative control

binding: binds
Substance: signal transducer and activator of transcription 3 (STAT3) (from UniProt P42227 1-770)
